PubChem BioAssay AID1224826 | NIAID – 2016
Assay: 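Knock-downs that raise or lower Tnf reporter signal after endotoxin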 (primary screen). System: RAW264.7 G9 macrophages from mouse bearing reporters for p65 (GFP) and the Tnf promoter (mCherry). Reagents: siRNA pool against mouse genes, 100 nM. Time to read-out: 16 h of LPS stimulation, after 2 days of siRNA transfection. Conditions: bacterial lipopolysaccharide (Salmonella minnesota R595), 10 ng/ml. Measurement: 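Imaged Tnf reporter mCherry in nuclei, minus background, normalised per plate to the median and expressed as robust z-scores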. Direction: Tnf reporter robust z-score: higher = stronger Tnf promoter reporter signal after LPS. Active means: 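a well counts as active at a score of -1.3 or below (Tlr4 knock-down control median) or above 3 (raised signal); controls and wells holding fewer than 50 cells are excluded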. Meaning of the calls: active = Tnf reporter clearly lowered or raised; inactive = no clear change in Tnf reporter.
The whole screen tested about 17,000 reagents; below is a part drawn at random. Over the whole deposit, about 1,110 (6.6%) were called active. 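Active means lowered or raised reporter signal; replicate intensities are raw and not normalised per plate.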 A number with no mark means an inactive call. Not all columns of the deposit are shown. Reagent sequences are not shown.

With knock-down of Scarb2 (GeneID 12492) the results were Tnf reporter robust z-score -0.43; fewer than 50 cells in well enough cells in well. Depletion of Phldb1 (GeneID 102693) came out at: Tnf reporter robust z-score 1.64; fewer than 50 cells in well enough cells in well. Depletion of Higd1b (GeneID 75689) gave: fewer than 50 cells in well fewer than 50 cells per well; well left out of calls. Knock-down of Ins2 (GeneID 16334) came out at: Tnf reporter robust z-score -0.03; fewer than 50 cells in well enough cells in well. Against Ppp2r1b (GeneID 73699), the entry reads Tnf reporter robust z-score -0.45; fewer than 50 cells in well enough cells in well. Kl (GeneID 16591) gave Tnf reporter robust z-score 0.45; fewer than 50 cells in well enough cells in well.

After knock-down of A430010J10Rik (GeneID 319665), the screen gave Tnf reporter robust z-score -0.35; fewer than 50 cells in well enough cells in well. After knock-down of Acot7 (GeneID 70025) the results were Tnf reporter robust z-score 1.07; fewer than 50 cells in well enough cells in well. Depletion of Eda (GeneID 13607) gave: Tnf reporter robust z-score -0.91; fewer than 50 cells in well enough cells in well. H4c9 (GeneID 319158) showed Tnf reporter robust z-score 1.68; fewer than 50 cells in well enough cells in well. With knock-down of Yrdc (GeneID 230734) the results were Tnf reporter robust z-score 1.33; fewer than 50 cells in well enough cells in well. With knock-down of Gria3 (GeneID 53623), the record shows Tnf reporter robust z-score 0.27; fewer than 50 cells in well enough cells in well.

Jarid2 (GeneID 16468) showed Tnf reporter robust z-score -1.51 (active); fewer than 50 cells in well enough cells in well. Aox3 (GeneID 71724) gave Tnf reporter robust z-score 1.07; fewer than 50 cells in well enough cells in well. Against Tmsb10 (GeneID 19240), the entry reads fewer than 50 cells in well fewer than 50 cells per well; well left out of calls. Against Pstpip1 (GeneID 19200), the entry reads Tnf reporter robust z-score -0.14; fewer than 50 cells in well enough cells in well. Against Timp2 (GeneID 21858), the values are Tnf reporter robust z-score 1.15; fewer than 50 cells in well enough cells in well. With knock-down of Cacng3 (GeneID 54376), the record shows Tnf reporter robust z-score -0.63; fewer than 50 cells in well enough cells in well.

Knock-down of Tpsg1 (GeneID 26945) resulted in: Tnf reporter robust z-score -1.28; fewer than 50 cells in well enough cells in well. With knock-down of Scrib (GeneID 105782), the screen gave Tnf reporter robust z-score -0.68; fewer than 50 cells in well enough cells in well. Serinc2 (GeneID 230779) gave fewer than 50 cells in well fewer than 50 cells per well; well left out of calls. After knock-down of Clec10a (GeneID 17312), the record shows Tnf reporter robust z-score 0.19; fewer than 50 cells in well enough cells in well. Silencing of Slc66a1 (GeneID 212555) came out at: Tnf reporter robust z-score 0.3; fewer than 50 cells in well enough cells in well. Silencing of Tnfrsf13c (GeneID 72049) resulted in: Tnf reporter robust z-score -1.9 (active); fewer than 50 cells in well enough cells in well.

After knock-down of Ddx47 (GeneID 67755) the results were Tnf reporter robust z-score 1.66; fewer than 50 cells in well enough cells in well. Kansl3 (GeneID 226976) scored Tnf reporter robust z-score 0.42; fewer than 50 cells in well enough cells in well. After knock-down of Ttc24 (GeneID 214191) the results were Tnf reporter robust z-score 3.33 (active); fewer than 50 cells in well enough cells in well.

In a second layout: entries from further up.
target gene	Tnf reporter robust z-score	fewer than 50 cells in well
Ppp2r1b (GeneID 73699)	-0.45	enough cells in well
Kl (GeneID 16591)	0.45	enough cells in well
A430010J10Rik (GeneID 319665)	-0.35	enough cells in well
Acot7 (GeneID 70025)	1.07	enough cells in well
